Some of the results follow.
Key:
Test in all cases: log2 fold change, soluble protein after heating vs DMSO (PISA); higher = thermal stabilisation; K562 cells, 10 uM, 30 min; active = over 0.2 and 3.5 SD of the protein, either way, in both replicates (recomputed)
[1] = compound: C#Cc1cccc(Nc2ncnc3cc(OCCOC)c(OCCOC)cc23)c1 [erlotinib]
How it was run: (§1)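 Soluble protein was defined as the supernatant after 21,000xg for 90 min. It came from K562 cells at 2×10^6 cells/mL given 10 μM compound for 30 min, heated in aliquots for 3 min across 48°C-58°C, pooled, and extracted in PBS with 0.5% NP-40 at 4°C, and was quantified by TMTpro 16plex LC-MS/MS with equalised channel sums. Thermal stability against control samples, from duplicates, is reported as log2 fold change.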

By UniProt entry, the sequences of proteins in these tests, tags left out. Where a name states a change or a piece, a line headed by the entry shows the natural chain unless it says otherwise.
UniProt O43299: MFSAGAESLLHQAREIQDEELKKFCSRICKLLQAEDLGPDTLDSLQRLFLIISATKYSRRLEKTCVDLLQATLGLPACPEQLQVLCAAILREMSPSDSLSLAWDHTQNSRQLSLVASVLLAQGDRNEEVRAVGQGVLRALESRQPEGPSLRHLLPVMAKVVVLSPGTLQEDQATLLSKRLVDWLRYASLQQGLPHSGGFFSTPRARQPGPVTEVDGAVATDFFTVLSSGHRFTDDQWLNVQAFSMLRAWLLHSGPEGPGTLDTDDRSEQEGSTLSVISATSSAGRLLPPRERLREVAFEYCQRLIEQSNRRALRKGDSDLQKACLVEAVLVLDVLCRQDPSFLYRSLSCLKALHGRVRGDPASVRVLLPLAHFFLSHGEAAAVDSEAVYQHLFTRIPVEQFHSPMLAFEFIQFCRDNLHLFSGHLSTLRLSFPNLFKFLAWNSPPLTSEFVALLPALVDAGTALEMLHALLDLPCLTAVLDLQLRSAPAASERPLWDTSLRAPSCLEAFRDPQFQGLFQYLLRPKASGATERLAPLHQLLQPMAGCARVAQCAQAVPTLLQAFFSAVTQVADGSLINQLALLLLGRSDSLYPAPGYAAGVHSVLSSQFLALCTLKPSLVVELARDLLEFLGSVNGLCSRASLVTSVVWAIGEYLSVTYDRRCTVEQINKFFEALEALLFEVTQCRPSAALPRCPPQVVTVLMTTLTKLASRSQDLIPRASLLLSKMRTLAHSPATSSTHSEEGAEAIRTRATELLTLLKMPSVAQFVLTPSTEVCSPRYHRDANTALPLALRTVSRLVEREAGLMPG
UniProt Q96CW1: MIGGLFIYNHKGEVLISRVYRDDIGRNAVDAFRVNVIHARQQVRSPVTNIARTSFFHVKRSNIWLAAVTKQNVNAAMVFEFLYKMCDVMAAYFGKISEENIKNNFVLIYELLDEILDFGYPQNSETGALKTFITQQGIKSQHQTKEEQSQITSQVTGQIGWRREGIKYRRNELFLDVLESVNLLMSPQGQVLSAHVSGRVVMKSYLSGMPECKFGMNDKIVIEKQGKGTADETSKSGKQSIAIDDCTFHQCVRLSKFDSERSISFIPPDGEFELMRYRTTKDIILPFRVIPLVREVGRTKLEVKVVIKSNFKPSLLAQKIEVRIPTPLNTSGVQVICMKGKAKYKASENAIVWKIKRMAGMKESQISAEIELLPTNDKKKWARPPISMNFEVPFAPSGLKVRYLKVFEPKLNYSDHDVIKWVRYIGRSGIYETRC
UniProt P02647, whole entry, looked up: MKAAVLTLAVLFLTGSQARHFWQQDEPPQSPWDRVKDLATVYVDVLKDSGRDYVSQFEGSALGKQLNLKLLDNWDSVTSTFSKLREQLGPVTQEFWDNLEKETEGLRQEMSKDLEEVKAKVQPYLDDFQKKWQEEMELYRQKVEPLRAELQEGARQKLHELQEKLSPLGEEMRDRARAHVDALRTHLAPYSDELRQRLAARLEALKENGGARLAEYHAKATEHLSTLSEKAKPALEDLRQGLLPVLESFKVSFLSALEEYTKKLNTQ
UniProt Q8IZ07: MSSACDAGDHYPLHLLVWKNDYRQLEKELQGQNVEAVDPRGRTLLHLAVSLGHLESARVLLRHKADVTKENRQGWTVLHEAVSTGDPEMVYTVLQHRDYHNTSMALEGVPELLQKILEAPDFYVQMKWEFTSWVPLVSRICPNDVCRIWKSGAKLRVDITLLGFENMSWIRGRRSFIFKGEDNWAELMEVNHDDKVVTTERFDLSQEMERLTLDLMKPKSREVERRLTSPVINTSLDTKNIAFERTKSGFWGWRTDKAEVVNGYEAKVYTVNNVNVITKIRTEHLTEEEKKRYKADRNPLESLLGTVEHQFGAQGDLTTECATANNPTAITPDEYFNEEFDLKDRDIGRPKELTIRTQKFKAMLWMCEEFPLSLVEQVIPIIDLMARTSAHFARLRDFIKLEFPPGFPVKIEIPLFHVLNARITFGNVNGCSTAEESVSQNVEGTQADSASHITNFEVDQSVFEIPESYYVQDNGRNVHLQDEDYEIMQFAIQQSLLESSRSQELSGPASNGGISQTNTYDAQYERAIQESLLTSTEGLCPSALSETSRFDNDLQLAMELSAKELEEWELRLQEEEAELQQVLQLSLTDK
UniProt O95445: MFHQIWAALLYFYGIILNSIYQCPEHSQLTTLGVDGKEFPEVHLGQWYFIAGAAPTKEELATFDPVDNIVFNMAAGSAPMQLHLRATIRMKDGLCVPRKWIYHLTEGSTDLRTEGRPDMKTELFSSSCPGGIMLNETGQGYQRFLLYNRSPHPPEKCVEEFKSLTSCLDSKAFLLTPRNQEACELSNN
UniProt P02649, whole entry, looked up: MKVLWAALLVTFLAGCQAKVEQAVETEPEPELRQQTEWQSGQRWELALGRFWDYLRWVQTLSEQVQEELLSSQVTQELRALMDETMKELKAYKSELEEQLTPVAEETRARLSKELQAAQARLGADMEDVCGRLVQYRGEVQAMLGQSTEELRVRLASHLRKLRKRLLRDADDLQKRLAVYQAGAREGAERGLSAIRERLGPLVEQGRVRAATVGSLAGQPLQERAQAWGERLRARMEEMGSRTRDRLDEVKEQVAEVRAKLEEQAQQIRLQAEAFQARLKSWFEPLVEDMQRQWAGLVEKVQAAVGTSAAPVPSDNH
UniProt Q92888: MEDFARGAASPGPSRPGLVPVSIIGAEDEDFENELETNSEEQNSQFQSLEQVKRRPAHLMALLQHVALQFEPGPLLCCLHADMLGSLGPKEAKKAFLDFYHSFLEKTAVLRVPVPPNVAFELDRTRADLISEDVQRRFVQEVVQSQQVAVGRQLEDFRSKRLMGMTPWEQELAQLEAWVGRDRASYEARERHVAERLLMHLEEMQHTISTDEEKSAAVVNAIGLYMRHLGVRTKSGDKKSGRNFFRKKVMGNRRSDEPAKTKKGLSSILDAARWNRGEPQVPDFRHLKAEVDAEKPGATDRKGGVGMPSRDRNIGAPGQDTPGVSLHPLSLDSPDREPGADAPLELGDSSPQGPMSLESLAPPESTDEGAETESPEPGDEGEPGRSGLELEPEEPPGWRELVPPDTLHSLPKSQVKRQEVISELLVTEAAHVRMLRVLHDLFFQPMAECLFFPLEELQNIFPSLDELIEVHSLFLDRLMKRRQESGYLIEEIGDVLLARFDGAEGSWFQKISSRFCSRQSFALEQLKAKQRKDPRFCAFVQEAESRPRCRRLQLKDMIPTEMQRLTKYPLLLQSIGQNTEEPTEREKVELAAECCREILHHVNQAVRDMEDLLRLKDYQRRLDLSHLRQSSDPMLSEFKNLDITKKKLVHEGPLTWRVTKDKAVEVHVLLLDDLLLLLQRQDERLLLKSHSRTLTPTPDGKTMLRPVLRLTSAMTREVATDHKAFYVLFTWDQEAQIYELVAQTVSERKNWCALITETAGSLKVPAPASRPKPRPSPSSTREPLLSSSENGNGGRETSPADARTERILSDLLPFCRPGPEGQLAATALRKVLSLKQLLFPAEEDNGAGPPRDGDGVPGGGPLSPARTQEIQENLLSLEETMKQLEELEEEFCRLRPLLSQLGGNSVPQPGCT
UniProt P61204: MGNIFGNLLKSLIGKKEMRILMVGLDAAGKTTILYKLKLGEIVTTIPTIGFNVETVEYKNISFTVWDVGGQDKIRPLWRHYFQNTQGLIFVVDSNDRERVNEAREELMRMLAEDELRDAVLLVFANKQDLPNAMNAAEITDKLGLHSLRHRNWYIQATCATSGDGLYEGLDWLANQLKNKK
UniProt Q8WVL7: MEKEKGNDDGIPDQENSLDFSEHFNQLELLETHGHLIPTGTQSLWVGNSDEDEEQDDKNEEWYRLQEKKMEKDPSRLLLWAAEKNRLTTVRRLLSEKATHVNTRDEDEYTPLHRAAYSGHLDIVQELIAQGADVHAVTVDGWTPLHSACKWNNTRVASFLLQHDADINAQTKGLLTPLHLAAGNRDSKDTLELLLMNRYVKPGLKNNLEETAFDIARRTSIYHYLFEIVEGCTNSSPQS
UniProt O14727: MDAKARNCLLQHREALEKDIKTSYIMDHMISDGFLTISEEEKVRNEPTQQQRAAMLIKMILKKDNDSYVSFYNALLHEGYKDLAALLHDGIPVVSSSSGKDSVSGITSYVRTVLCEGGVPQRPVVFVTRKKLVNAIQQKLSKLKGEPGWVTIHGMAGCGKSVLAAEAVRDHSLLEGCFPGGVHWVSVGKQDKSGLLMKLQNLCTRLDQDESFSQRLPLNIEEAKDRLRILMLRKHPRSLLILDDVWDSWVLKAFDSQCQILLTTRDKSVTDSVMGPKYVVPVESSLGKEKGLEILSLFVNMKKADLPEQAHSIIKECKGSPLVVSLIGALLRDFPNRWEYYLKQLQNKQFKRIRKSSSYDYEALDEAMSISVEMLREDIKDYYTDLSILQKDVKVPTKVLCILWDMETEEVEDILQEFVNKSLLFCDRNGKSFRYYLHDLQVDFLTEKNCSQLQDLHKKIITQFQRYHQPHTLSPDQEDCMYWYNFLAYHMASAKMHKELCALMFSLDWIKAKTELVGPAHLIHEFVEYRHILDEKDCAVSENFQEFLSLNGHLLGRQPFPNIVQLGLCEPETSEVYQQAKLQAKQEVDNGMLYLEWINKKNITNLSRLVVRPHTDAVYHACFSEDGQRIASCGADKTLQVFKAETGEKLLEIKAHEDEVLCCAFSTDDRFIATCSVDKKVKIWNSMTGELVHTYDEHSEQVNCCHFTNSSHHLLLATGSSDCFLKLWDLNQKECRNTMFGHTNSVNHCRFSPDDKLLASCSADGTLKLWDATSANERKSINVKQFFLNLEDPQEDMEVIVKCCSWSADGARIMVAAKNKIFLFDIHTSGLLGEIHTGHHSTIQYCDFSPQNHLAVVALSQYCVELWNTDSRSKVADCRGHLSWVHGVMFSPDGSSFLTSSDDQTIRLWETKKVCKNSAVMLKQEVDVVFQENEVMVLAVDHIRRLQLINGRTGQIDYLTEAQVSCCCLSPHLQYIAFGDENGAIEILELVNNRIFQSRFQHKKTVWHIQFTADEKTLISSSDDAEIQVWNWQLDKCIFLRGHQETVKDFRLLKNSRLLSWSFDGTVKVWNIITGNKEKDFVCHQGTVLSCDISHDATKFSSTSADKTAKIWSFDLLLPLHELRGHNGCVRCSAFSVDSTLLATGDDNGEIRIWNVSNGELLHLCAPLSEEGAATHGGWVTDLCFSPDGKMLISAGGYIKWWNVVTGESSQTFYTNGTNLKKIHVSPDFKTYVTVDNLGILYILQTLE
UniProt Q9Y5C1: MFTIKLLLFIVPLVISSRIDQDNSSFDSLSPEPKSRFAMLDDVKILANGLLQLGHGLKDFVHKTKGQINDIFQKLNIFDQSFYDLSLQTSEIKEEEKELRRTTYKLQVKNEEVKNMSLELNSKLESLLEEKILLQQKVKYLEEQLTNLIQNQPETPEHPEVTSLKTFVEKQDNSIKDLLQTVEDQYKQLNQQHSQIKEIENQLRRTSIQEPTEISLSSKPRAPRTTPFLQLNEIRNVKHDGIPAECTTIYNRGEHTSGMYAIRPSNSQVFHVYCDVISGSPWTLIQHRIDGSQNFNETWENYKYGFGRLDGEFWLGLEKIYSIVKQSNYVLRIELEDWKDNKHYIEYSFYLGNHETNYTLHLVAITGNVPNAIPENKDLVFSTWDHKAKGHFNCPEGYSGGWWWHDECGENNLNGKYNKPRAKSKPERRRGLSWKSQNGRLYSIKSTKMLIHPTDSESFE
UniProt P42331: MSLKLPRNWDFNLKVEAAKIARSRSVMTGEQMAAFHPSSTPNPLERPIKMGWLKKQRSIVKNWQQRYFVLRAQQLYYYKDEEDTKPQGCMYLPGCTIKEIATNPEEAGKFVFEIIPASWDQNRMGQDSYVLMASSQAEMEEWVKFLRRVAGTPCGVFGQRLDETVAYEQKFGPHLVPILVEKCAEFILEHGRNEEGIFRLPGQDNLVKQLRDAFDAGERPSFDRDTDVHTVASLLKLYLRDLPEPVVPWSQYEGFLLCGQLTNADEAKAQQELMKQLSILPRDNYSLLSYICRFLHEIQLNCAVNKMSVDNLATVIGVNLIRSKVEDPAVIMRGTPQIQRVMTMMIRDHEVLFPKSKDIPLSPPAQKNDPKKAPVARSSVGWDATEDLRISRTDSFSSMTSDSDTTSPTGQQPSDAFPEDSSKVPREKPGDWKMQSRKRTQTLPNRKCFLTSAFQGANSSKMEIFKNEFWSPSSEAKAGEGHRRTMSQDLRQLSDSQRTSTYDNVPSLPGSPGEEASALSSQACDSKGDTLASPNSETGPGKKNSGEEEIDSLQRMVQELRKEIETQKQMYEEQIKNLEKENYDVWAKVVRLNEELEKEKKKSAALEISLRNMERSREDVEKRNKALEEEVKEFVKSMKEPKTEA
UniProt P52566: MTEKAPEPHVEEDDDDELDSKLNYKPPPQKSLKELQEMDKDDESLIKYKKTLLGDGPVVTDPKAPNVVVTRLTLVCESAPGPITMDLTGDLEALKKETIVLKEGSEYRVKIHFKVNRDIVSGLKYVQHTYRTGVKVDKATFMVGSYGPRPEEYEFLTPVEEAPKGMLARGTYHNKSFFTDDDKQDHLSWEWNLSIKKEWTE

[2] = compound: C/C(=N\NC(=O)C1=CC(=CC=C1)S(=O)(=O)N2CCOCC2)/C3=C(C=CC(=C3)Cl)O
How it was run: as §1

[3] = compound: C1=CC(=C(C=C1Cl)C2=NC3=NC=CN=C3C(=N2)NC4=CC=NC=C4)F
How it was run: as §1

[4] = compound: C1=CC(=CC=C1C2=NC3=C(N2)C=C(C=C3)C(=O)N)OC4=CC=C(C=C4)Cl
How it was run: as §1

[5] = compound: C1=CC2=C(C=CC(=C2)/C=C\3/C(=O)NC(=NCC4=CC=CS4)S3)N=C1
How it was run: as §1

[6] = compound: C1=CC2=NC=CN=C2C=C1/C=C/3\C(=O)NC(=O)S3
How it was run: as §1

[7] = compound: C1=CC=C(C=C1)C2=NC(=C(N2)C3=CC=NC=C3)C4=CC(=C(C=C4)Cl)O
How it was run: as §1

[8] = compound: C1=CC=C2C(=C1)C3=NNC4=CC=CC(=C43)C2=O
How it was run: as §1

[9] = compound: C1CCN(C1)C(=O)NC2=CC=CC(=C2)NC3=NC=C(C(=N3)NCCC4=CN=CN4)Br
How it was run: as §1

[10] = compound: C1CN(CCC1(CC2=CC=C(C=C2)Cl)N)C3=NC=NC4=C3C=CN4
How it was run: as §1

Measured: log2 fold change

APOBEC3D (UniProt Q96AK3)
inactive: [1] -0.021 | [2] -0.133 | [3] -0.301 | [4] -0.014 | [5] 0.019 | [6] -0.093 | [7] 0.034 | [8] -0.06 | [9] -0.037 | [10] -0.029

AP5Z1 (UniProt O43299)
inactive: [1] 0.239 | [2] -0.062 | [3] 0.064 | [4] 0.025 | [5] 0.243 | [6] -0.041 | [7] -0.124 | [8] -0.038 | [9] 0.233 | [10] 0.077

AP2M1 (UniProt Q96CW1)
active: [8] -0.26 | [9] -0.367
inactive: [1] -0.067 | [2] 0.006 | [3] -0.012 | [4] 0.017 | [5] 0.005 | [6] -0.016 | [7] 0.036 | [10] -0.01

APOA1 (UniProt P02647)
inactive: [1] 0.001 | [2] -0.164 | [3] -0.059 | [4] -0.051 | [5] 0.132 | [6] -0.143 | [7] -0.188 | [8] -0.06 | [9] -0.065 | [10] 0.069

AP2S1 (UniProt P53680)
active: [8] -0.27 | [9] -0.354
inactive: [1] -0.1 | [2] 0.148 | [3] -0.056 | [4] -0.018 | [5] 0.052 | [6] 0.013 | [7] -0.011 | [10] -0.003

ARHGEF18 (UniProt Q6ZSZ5)
inactive: [1] 0.121 | [2] 0.002 | [3] 0.06 | [4] -0.089 | [5] 0.064 | [6] -0.013 | [7] 0.069 | [8] 0.073 | [9] -0.066 | [10] -0.14

ANKRD13A (UniProt Q8IZ07)
inactive: [1] -0.038 | [2] 0.012 | [3] -0.039 | [4] 0.02 | [5] 0.038 | [6] -0.046 | [7] -0.01 | [8] -0.001 | [9] 0.017 | [10] -0.035

APOM (UniProt O95445)
inactive: [1] -0.15 | [2] -0.053 | [3] 0.082 | [4] 0.035 | [5] 0.048 | [6] -0.336 | [7] -0.186 | [8] -0.101 | [9] 0.011 | [10] 0.173

APOE (UniProt P02649)
inactive: [1] -0.021 | [2] 0.011 | [3] -0.051 | [4] -0.052 | [5] -0.007 | [6] -0.038 | [7] -0.007 | [8] -0.077 | [9] -0.048 | [10] 0.011

AP4E1 (UniProt Q9UPM8)
inactive: [1] 0.204 | [2] 0.15 | [3] -0.139 | [4] -0.001 | [5] 0.088 | [6] 0.046 | [7] 0 | [8] -0.082 | [9] -0.061 | [10] -0.054

ARFRP1 (UniProt Q13795)
inactive: [1] -0.018 | [2] -0.017 | [3] 0.096 | [4] 0.008 | [5] 0.12 | [6] 0.048 | [7] 0.057 | [8] 0.015 | [9] -0.013 | [10] 0.032

ARHGEF1 isoform 3 (UniProt Q92888)
inactive: [1] 0.022 | [2] -0.045 | [3] -0.059 | [4] 0.008 | [5] -0.03 | [6] -0.015 | [7] -0.016 | [8] -0.037 | [9] -0.058 | [10] -0.155

ARF3 (UniProt P61204)
inactive: [1] 0.004 | [2] 0.039 | [3] 0.034 | [4] -0.006 | [5] 0.027 | [6] 0.007 | [7] 0.029 | [8] 0.005 | [9] -0.019 | [10] 0.025

Reprinted at random: two entries already listed, in no set order.
APOM (UniProt O95445)
inactive: [1] -0.15 | [2] -0.053 | [3] 0.082 | [4] 0.035 | [5] 0.048 | [6] -0.336 | [7] -0.186 | [8] -0.101 | [9] 0.011 | [10] 0.173

APOBEC3D (UniProt Q96AK3)
inactive: [1] -0.021 | [2] -0.133 | [3] -0.301 | [4] -0.014 | [5] 0.019 | [6] -0.093 | [7] 0.034 | [8] -0.06 | [9] -0.037 | [10] -0.029

Following part:

AP3M1 (UniProt Q9Y2T2)
inactive: [1] 0.016 | [2] 0.053 | [3] 0.04 | [4] -0.002 | [5] 0.047 | [6] 0.012 | [7] 0.002 | [8] -0.022 | [9] -0.045 | [10] -0.035

ARFGEF2 (UniProt Q9Y6D5)
inactive: [1] -0.034 | [2] 0.084 | [3] -0.004 | [4] -0.014 | [5] -0.002 | [6] -0.007 | [7] -0.045 | [8] 0.012 | [9] 0.042 | [10] 0.005

APOOL (UniProt Q6UXV4)
inactive: [1] 0.013 | [2] -0.025 | [3] 0.032 | [4] 0.013 | [5] -0.004 | [6] 0.018 | [7] -0.011 | [8] -0.004 | [9] 0.017 | [10] 0.082

ANAPC7 (UniProt Q9UJX3)
inactive: [1] -0.011 | [2] 0.039 | [3] -0.032 | [4] 0.065 | [5] -0.022 | [6] 0.014 | [7] 0.034 | [8] 0.012 | [9] -0.013 | [10] -0.031

ANXA2 isoform 2 (UniProt P07355)
inactive: [1] -0.032 | [2] 0.076 | [3] 0.069 | [4] -0.015 | [5] -0.041 | [6] -0.024 | [7] 0.066 | [8] 0.037 | [9] -0.027 | [10] 0.007

ANXA7 (UniProt P20073)
inactive: [1] -0.045 | [2] 0.08 | [3] 0.088 | [4] 0.006 | [5] -0.013 | [6] -0.008 | [7] 0.07 | [8] 0.012 | [9] 0.007 | [10] -0.036

ANKRD49 (UniProt Q8WVL7)
inactive: [1] 0.01 | [2] -0.018 | [3] 0.021 | [4] -0.004 | [5] -0.112 | [6] -0.036 | [7] 0.046 | [8] 0.056 | [9] -0.005 | [10] 0.051

APAF1 (UniProt O14727)
inactive: [1] 0.207 | [2] 0.066 | [3] -0.073 | [4] 0.141 | [5] 0.016 | [7] 0.037 | [8] 0.011

AP4S1 (UniProt Q9Y587)
inactive: [1] -0.014 | [2] -0.013 | [3] -0.015 | [4] 0.078 | [6] 0 | [8] -0.111
active: [5] -0.456

ANGPTL3 (UniProt Q9Y5C1)
inactive: [1] -0.048 | [2] -0.032 | [3] -0.073 | [4] 0.008 | [5] 0.146 | [6] -0.147 | [7] -0.163 | [8] -0.056 | [9] -0.002 | [10] 0.01

ARHGAP25 isoform 4 (UniProt P42331)
inactive: [1] 0.07 | [2] 0.165 | [3] 0.109 | [4] -0.284 | [5] 0.042 | [6] -0.192 | [8] -0.062 | [9] 0.052 | [10] -0.147

AQR (UniProt O60306)
inactive: [1] -0.061 | [2] -0.017 | [3] -0.128 | [4] 0.043 | [5] 0.076 | [7] 0.028 | [8] -0.058 | [9] 0.013 | [10] -0.053

ANO10 (UniProt Q9NW15)
inactive: [1] -0.08 | [2] 0.076 | [3] 0.01 | [4] -0.01 | [5] 0.03 | [6] 0.013 | [7] 0.02 | [8] 0 | [9] -0.009 | [10] 0.019

ARHGDIB (UniProt P52566)
inactive: [1] 0.027 | [2] -0.01 | [3] 0.093 | [4] -0.024 | [5] 0.093 | [6] 0.026 | [7] 0.008 | [8] -0.006 | [9] 0.046 | [10] 0

APOBEC3G (UniProt Q9HC16)
inactive: [1] -0.087 | [2] 0.027 | [3] -0.124 | [4] 0.047 | [5] -0.005 | [6] 0.056 | [7] -0.056 | [8] 0.109 | [9] 0.181 | [10] -0.362
